Results deposited as PubChem BioAssay AID1259254 (NCATS, 2017)
Purpose: 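Gene knock-downs that lead to re-replication, shown by excess G2 DNA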 (primary screen). Cells: human HCT116 colorectal cancer cells. Reagent: single siRNA against human genes. Time to read-out: 3 days. Measured: 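Nuclei stained with Hoechst and imaged; cell-cycle phase assigned by DNA content; G2 share scaled per plate, non-targeting siRNA 0%, GMNN siRNA 100%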. Reading the numbers: G2 robust z-score and G2 cells, % of GMNN control: higher = more G2 cells, more excess DNA replication; raw share of cells in G2: higher = larger share of cells with G2 DNA content. Rule for the call: 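Active siRNAs have a G2 robust z of 5 or more median absolute deviations over the median, which in these data means about 38% or higher of GMNN control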.
Here is one part, drawn at random, of about 59,000 reagents. About 1,550 of them (2.6%) count as active. 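G2 share is only a proxy for re-replication; each gene was hit by three separate siRNAs, and active genes were retested.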 The raw values are shown without normalisation. Unmarked entries are inactive. Reagents against one gene are numbered here. Not stated in the record: the amount of reagent.

target gene	reagent	G2 robust z-score	G2 cells, % of GMNN control	raw share of cells in G2 (%)
PECAM1	1	11.6 (active)	84.9	32.4
PECAM1	2	-0.398	0.167	4.35
PECAM1	3	0.644	7.5	5.75
PLSCR3	1	-1.26	-5.89	1.88
PLSCR3	2	-0.0224	2.81	5.45
PLSCR3	3	0.602	7.2	9.59
MARK4	1	-0.632	-1.48	5.13
MARK4	2	-1.4	-6.87	2.69
MARK4	3	-0.641	-1.54	3.19
ZNF777	1	-0.499	-0.543	2.6
ZNF777	2	-0.829	-2.87	4.61
ZNF777	3	-0.563	-0.993	3.32
NOS3	1	-0.474	-0.367	3.07
NOS3	2	-0.995	-4.03	3.8
NOS3	3	-0.953	-3.74	3.99
FUT3	1	6.89 (active)	51.5	23.9
FUT3	2	-0.99	-4	3.74
FUT3	3	0.433	6.01	5.8
GMIP	1	0.957	9.7	10.4
GMIP	2	-1.09	-4.67	2.52
GMIP	3	-0.119	2.13	4.62
NMS	1	-0.878	-3.21	2.97
NMS	2	-0.706	-2	2.47
NMS	3	-0.645	-1.57	2.01
BCR	1	-0.64	-1.54	4.2
BCR	2	-0.282	0.986	5.42
BCR	3	0.515	6.59	6.45
MROH7	1	-0.716	-2.07	3.28
MROH7	2	-0.175	1.74	4.02
MROH7	3	2.34	19.4	12
UBE2E3	1	0.032	3.19	7.08
UBE2E3	2	-0.686	-1.86	5.74
UBE2E3	3	1.29	12.1	7.74
RXRA	1	3.93	30.6	16
RXRA	2	-0.509	-0.61	4.34
RXRA	3	-0.219	1.42	4.43
CPA3	1	-0.664	-1.7	4.97
CPA3	2	0.399	5.78	6.95
CPA3	3	3.42	27.1	14
EBP	1	-0.665	-1.71	5.8
EBP	2	1.62	14.3	8.48
EBP	3	0.0335	3.2	7.09
SMAD7	1	-0.183	1.68	4.13
SMAD7	2	0.471	6.28	7.79
SMAD7	3	2.11	17.8	9.58
ANKH	1	-0.759	-2.38	3.41
ANKH	2	-0.0195	2.83	5.81
ANKH	3	-0.0178	2.84	3.93
NECTIN4	1	-0.113	2.17	6.33
NECTIN4	2	0.336	5.33	6.12
NECTIN4	3	1.22	11.6	9.07
GGA3	1	1.83	15.8	12.7
GGA3	2	-0.486	-0.453	4
GGA3	3	1.11	10.8	7.56
COX7C	1	-1.29	-6.07	2.77
COX7C	2	-0.776	-2.5	4.07
COX7C	3	-1.25	-5.86	2.08
CRELD2	1	-0.655	-1.64	3.86
CRELD2	2	0.105	3.71	6.27
CRELD2	3	0.366	5.54	4.16
SIKE1	1	6.96 (active)	51.9	26
SIKE1	2	-0.743	-2.26	3.32
SIKE1	3	-0.00819	2.91	3.17
CAMK2B	1	-0.317	0.738	5.85
CAMK2B	2	-1.26	-5.87	3.43
CAMK2B	3	-1.09	-4.7	2.37
BBS9	1	0.125	3.85	5.32
BBS9	2	-0.725	-2.14	3.74
BBS9	3	0.76	8.31	5.87
ATP6V0E2-AS1	1	-0.753	-2.33	2.96
ATP6V0E2-AS1	2	-0.0876	2.35	4.45
ATP6V0E2-AS1	3	-0.435	-0.091	4.75
CDK15	1	3.46	27.3	14.1
CDK15	2	-0.879	-3.22	4.02
CDK15	3	9.16 (active)	67.4	25.3
C1S	1	-0.342	0.561	5.75
C1S	2	-1.06	-4.48	3.32
C1S	3	0.0983	3.66	5.27
HES1	1	-0.595	-1.22	5.22
HES1	2	3.85	30.1	15.2
HES1	3	2.86	23.1	13.4
SLC25A11	1	0.0134	3.06	6.34
SLC25A11	2	0.06	3.39	6.08
SLC25A11	3	0.369	5.56	6.7
RNASE11	1	0.0366	3.23	5.38
RNASE11	2	1.13	10.9	6.58
RNASE11	3	-0.0179	2.84	2.65
